Results deposited as PubChem BioAssay AID1259254 (NCATS, 2017).

Purpose: 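Finding genes that stop cells copying their DNA twice in one cycle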 (primary screen)
System: human HCT116 colorectal cancer cells
Reagent: single siRNA against human genes
Duration: 3 days
Measurement: 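Nuclei stained with Hoechst and imaged; cell-cycle phase assigned by DNA content; G2 share scaled per plate, non-targeting siRNA 0%, GMNN siRNA 100%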
Scale: G2 robust z-score and G2 cells, % of GMNN control: higher = more G2 cells, more excess DNA replication; raw share of cells in G2: higher = larger share of cells with G2 DNA content
Hit rule: 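Active siRNAs have a G2 robust z of 5 or more median absolute deviations over the median, which in these data means about 38% or higher of GMNN control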
This is a random part of about 59,000 reagents. About 1,550 of all reagents (2.6%) were called active. 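G2 share is only a proxy for re-replication; each gene was hit by three separate siRNAs, and active genes were retested.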 The raw values are shown without normalisation. A number with no mark means an inactive call. The numbers tell different reagents against one gene apart. Reagent sequences are not shown. The record does not give: the amount of reagent.

gene	reagent	G2 robust z-score	G2 cells, % of GMNN control	raw share of cells in G2 (%)
SYN2	1	-0.537	-0.809	5.41
SYN2	2	-0.96	-3.79	3.25
SYN2	3	3.51	27.6	13.1
TACC2	1	0.928	9.49	8.71
TACC2	2	0.638	7.46	7.22
TACC2	3	0.635	7.44	5.96
PLA2G2D	1	1.59	14.2	8.63
PLA2G2D	2	-1.39	-6.82	3.07
PLA2G2D	3	4.66	35.7	16
CBX1	1	-0.294	0.896	6.08
CBX1	2	0.856	8.99	6.75
CBX1	3	-1.21	-5.53	4.3
EXOC3L1	1	-0.349	0.512	3.83
EXOC3L1	2	-1.14	-5.07	1.08
EXOC3L1	3	-0.713	-2.05	2.64
STARD9	1	1.71	15	10.3
STARD9	2	-0.413	0.0618	4.49
STARD9	3	-0.586	-1.16	2.66
XKRY	1	-0.3	0.856	5.51
XKRY	2	0.178	4.22	5.57
XKRY	3	-0.577	-1.09	2.96
GPR149	1	0.381	5.65	6.92
GPR149	2	0.938	9.57	8.33
GPR149	3	0.373	5.59	6
ATRN	1	-0.557	-0.95	4.37
ATRN	2	-1.61	-8.33	2.34
ATRN	3	-0.338	0.588	4.8
ATP6V1A	1	-1.09	-4.69	3.58
ATP6V1A	2	-0.971	-3.86	3.48
ATP6V1A	3	-0.52	-0.692	4.11

Copied from above for reference:
gene	reagent	G2 robust z-score	G2 cells, % of GMNN control	raw share of cells in G2 (%)
ATRN	2	-1.61	-8.33	2.34
ATRN	3	-0.338	0.588	4.8
